# Laboratory results as given in the supplement of paper PMC3682954.
# Where “and” joins values, the source holds several entries; their conditions need not be identical. Equal values may be shown once. Where a name gives a salt, the structure may show the parent alone. ± gives the standard deviation of the averaged measurements. Some of the results follow. Repeats are few or missing, and single values can be far off.
# Test system: RAW 264.7
# Experiment: cell viability (MTT) relative to vehicle control; higher = more viable cells
# Settings: stimulus: HMGB1 5 ug/ml, 18 h
# [1] = compound concentration: 1 ug/ml
SMILES,cell viability (compound concentration: 3 uM),cell viability [1] [%]
CN(C)C/C=C(/c1ccc(Br)cc1)c1cccnc1 [Zimelidine dihydrochloride],105%,
CN(C)C/C=C(/c1ccc(Br)cc1)c1cccnc1 [Zimelidine dihydrochloride monohydrate],100%,
CC(C)(CO)C(O)C(=O)NCCCO (centres undefined) [Panthenol (D)],107%,
CC(C)(CO)C(O)C(=O)NCCCO (centres undefined),107%,
NCCCNCCCCNCCCN [Spermine tetrahydrochloride],116%,
CCN(CC)CCNC(=O)c1cc(Cl)c(N)cc1OC [Metoclopramide monohydrochloride],94.6%,
CCN(CC)CCNC(=O)c1cc(Cl)c(N)cc1OC,108%,
CCN(CC)CCNC(=O)c1cc(Cl)c(N)cc1OC [Metoclopramide],110%,
CCN(CC)CCNC(=O)c1cc(Cl)c(N)cc1OC [Metoclopramide hydrochloride],99.8%,
Cc1ccc2c(c1)c1c3n2CCNC3CCC1 (centres undefined) [Pirlindole mesylate],85.7%,
CC(=O)N[C@@H](Cc1c[nH]c2ccccc12)C(=O)OCc1cc(C(F)(F)F)cc(C(F)(F)F)c1,96.1%,
NC/C=C/C(=O)O [(E)-4-amino-2-butenoic acid],111%,
"CCN(CC)CCOC(=O)c1cc(Cl)c(N)cc1OC [SDZ-205,557 hydrochloride]",111%,
C=C1/C(=C\C=C2/CCC[C@]3(C)[C@@H]([C@H](C)CCCC(C)C)CC[C@@H]23)C[C@@H](O)C[C@@H]1O [Alfacalcidol],110 ± 17%,
CCC[C@@H]1C[C@@H](C(=O)N[C@@H]([C@H]2O[C@H](SC)[C@H](O)[C@@H](O)[C@H]2O)[C@H](C)Cl)N(C)C1 [Clindamycin],119 ± 14%,
CCC[C@@H]1C[C@@H](C(=O)N[C@@H]([C@H]2O[C@H](SC)[C@H](O)[C@@H](O)[C@H]2O)[C@H](C)Cl)N(C)C1,101.7 ± 0.81%,
CCC[C@@H]1C[C@@H](C(=O)N[C@@H]([C@H]2O[C@H](SC)[C@H](O)[C@@H](O)[C@H]2O)[C@H](C)Cl)N(C)C1 [Clindamycin hydrochloride],97.2%,
O=C(O)C1OC(O)C(O)C(O)C1O (centres undefined),,96.8
O=C(O)CCNC(=O)c1ccccc1,109%,
O=C(N[C@H](CO)[C@H](O)c1ccc([N+](=O)[O-])cc1)C(Cl)Cl,106 ± 9%,
O=C(N[C@H](CO)[C@H](O)c1ccc([N+](=O)[O-])cc1)C(Cl)Cl [Chloramphenicol],103 ± 5%,99.9
C[n+]1c2cc(N)ccc2cc2ccc(N)cc21,83.7 ± 23%,

SMILES,cell viability (compound concentration: 3 uM),cell viability [1] [%]
CN1CCC[C@@H]1Cc1c[nH]c2ccc(CCS(=O)(=O)c3ccccc3)cc12,96.4%,
CC(C)[N+](C)(CCOC(=O)C1c2ccccc2Oc2ccccc21)C(C)C [Propantheline bromide],105 ± 1.1%,
CC(C)[N+](C)(CCOC(=O)C1c2ccccc2Oc2ccccc21)C(C)C,101%,
CN(C)CCC=C1c2ccccc2COc2ccccc21,98.5%,
CN(C)CCC=C1c2ccccc2COc2ccccc21 [Doxepin],102%,
CN(C)CCC=C1c2ccccc2COc2ccccc21 [Doxepin hydrochloride],106 ± 5.6%,
O=C(O)Cc1c[nH]c2ccc(O)cc12 [5-Hydroxyindolacetic acid],102%,
CCN(c1nc(N)c(C(=O)NC(=N)N)nc1Cl)C(C)C [5-(N-Ethyl-N-isopropyl)amiloride],97.5%,
OCc1cccnc1,101% and 97%,
COc1ccccc1Oc1c(NS(=O)(=O)c2ccc(C(C)(C)C)cc2)nc(-c2ncccn2)nc1OCCO [Bosentan],106 ± 9.8%,
Nc1ccccc1S(N)(=O)=O [2-Aminobenzenesulfonamide],95.7%,
C[N+](C)(C)CC=O [Betaine aldehyde chloride],103%,
OC[C@H]1O[C@@H](n2cnc3c(NC4CCCC4)ncnc32)[C@H](O)[C@@H]1O [N6-Cyclopentyladenosine],103%,
O=c1cc(-c2ccc(O)cc2O)oc2ccccc12,,83.1
CCCn1c(=O)[nH]c(=O)c2[nH]cnc21 [3-n-Propylxanthine],98.4%,
O=C(O)c1cn(C2CC2)c2cc(N3CCNCC3)c(F)cc2c1=O [Ciprofloxacin],92.3%,
O=C(O)c1cn(C2CC2)c2cc(N3CCNCC3)c(F)cc2c1=O,118 ± 23%,
O=C(O)c1cn(C2CC2)c2cc(N3CCNCC3)c(F)cc2c1=O [Ciprofloxacin hydrochloride],102%,
O[C@H]1CCN2Cc3ccccc3N=C12 [Peganine HCl],,93.1
COc1ccc(-c2cc(=S)ss2)cc1 [Anethole-trithione],112 ± 3.8%,
Cc1cc(C(C)(C)C)c(O)c(C(C)(C)C)c1,114%,
C1COC(NC(C2CC2)C2CC2)=N1 [Rilmenidine],103%,

SMILES,cell viability (compound concentration: 3 uM),cell viability [1] [%]
C1COC(NC(C2CC2)C2CC2)=N1 [Rilmenidine hemifumarate],126%,
"Cn1c(=O)[nH]c2ncn(C)c2c1=O [1,7-Dimethylxanthine]",103%,
C[C@@H]1CC[C@H]2[C@](C)(CO)[C@@H](O)CC[C@]2(C)[C@@]12CC[C@@](CO)(CCO)O2 [Lagochiline],,87.6
NC1CCN(c2cccc(Cl)n2)CC1,96.1% and 120%,
Cc1ccc(S(=O)(=O)N[C@@H](Cc2ccccc2)C(=O)CCl)cc1 [N-p-Tosyl-L-phenylalanine chloromethyl ketone],105%,
CCCN1CCCC[C@H]1C(=O)Nc1c(C)cccc1C,95.4%,
COc1cc(C(=O)NCc2ccc(OCCN(C)C)cc2)cc(OC)c1OC [Trimethobenzamide hydrochloride],97.4%,
COc1cc(C(=O)NCc2ccc(OCCN(C)C)cc2)cc(OC)c1OC,114%,
Cc1c(C(=O)NN2CCCCC2)nn(-c2ccc(Cl)cc2Cl)c1-c1ccc(I)cc1,101%,
CCc1nc(N)nc(N)c1-c1ccc(Cl)cc1,93.3%,
CCc1nc(N)nc(N)c1-c1ccc(Cl)cc1 [Pyrimethamine],81.9%,
CC(=O)[C@@]1(O)CC[C@H]2[C@@H]3C[C@H](C)C4=CC(=O)C=C[C@]4(C)[C@@]3(F)[C@@H](O)C[C@@]21C,114%,
CC(=O)[C@@]1(O)CC[C@H]2[C@@H]3C[C@H](C)C4=CC(=O)C=C[C@]4(C)[C@@]3(F)[C@@H](O)C[C@@]21C [Fluorometholone],104%,
CC(C)NCC(O)COc1ccc(CCOCC2CC2)cc1 (centres undefined) [Betaxolol hydrochloride],93 ± 2.8%,
CC(C)NCC(O)COc1ccc(CCOCC2CC2)cc1 (centres undefined),98.1%,
CC(C)NCC(O)COc1ccc(CCOCC2CC2)cc1 (centres undefined) [Betaxolol],109%,
CN1CC(=O)N2[C@H](c3ccc4c(c3)OCO4)c3[nH]c4ccccc4c3C[C@@H]2C1=O,109 ± 2.5%,
C1CCC(C(CC2CCCCN2)C2CCCCC2)CC1 (centres undefined) [Perhexiline maleate],98.5%,
C1CCC(C(CC2CCCCN2)C2CCCCC2)CC1 (centres undefined),96.7%,
C[C@H]1c2cccc(O)c2C(=O)C2=C(O)[C@]3(O)C(=O)C(C(N)=O)=C(O)[C@@H](N(C)C)[C@@H]3[C@@H](O)[C@@H]21,101%,
C[C@H]1c2cccc(O)c2C(=O)C2=C(O)[C@]3(O)C(=O)C(C(N)=O)=C(O)[C@@H](N(C)C)[C@@H]3[C@@H](O)[C@@H]21 [Doxycycline],103%,
C[C@H]1c2cccc(O)c2C(=O)C2=C(O)[C@]3(O)C(=O)C(C(N)=O)=C(O)[C@@H](N(C)C)[C@@H]3[C@@H](O)[C@@H]21 [Doxycycline hydrochloride],103 ± 5.4%,

# Full records, quoted from the list.
# CC(=O)[C@@]1(O)CC[C@H]2[C@@H]3C[C@H](C)C4=CC(=O)C=C[C@]4(C)[C@@]3(F)[C@@H](O)C[C@@]21C [Fluorometholone] is listed as cell viability (compound concentration: 3 uM): 104%
# COc1cc(C(=O)NCc2ccc(OCCN(C)C)cc2)cc(OC)c1OC is listed as cell viability (compound concentration: 3 uM): 114%
# Cc1ccc(S(=O)(=O)N[C@@H](Cc2ccccc2)C(=O)CCl)cc1 [N-p-Tosyl-L-phenylalanine chloromethyl ketone] is listed as cell viability (compound concentration: 3 uM): 105%

# Next results.

SMILES,cell viability (compound concentration: 3 uM),cell viability [1] [%]
"O=c1ccn2c(n1)O[C@H]1[C@H](O)[C@@H](CO)O[C@H]12 [O2,2'-Cyclouridine]",,101
COc1cc2c(C)cc(=O)oc2cc1Cl,,94.6
C[C@](N)(Cc1ccc(O)c(O)c1)C(=O)O,109%,
C[C@](N)(Cc1ccc(O)c(O)c1)C(=O)O [L-alpha-Methyl DOPA],114%,
C[C@](N)(Cc1ccc(O)c(O)c1)C(=O)O [Methyldopa],96.6%,
"C[C@](N)(Cc1ccc(O)c(O)c1)C(=O)O [Methyldopa (L,-)]",102%,
C/C(=C\CNc1ncnc2nc[nH]c12)CO [trans-Zeatin],,83.9
c1cnc(N2CCN(Cc3ccc4c(c3)OCO4)CC2)nc1 [Piribedil maleate],110%,
c1cnc(N2CCN(Cc3ccc4c(c3)OCO4)CC2)nc1,108%,
c1cnc(N2CCN(Cc3ccc4c(c3)OCO4)CC2)nc1 [Piribedil hydrochloride],103%,
c1cnc(N2CCN(Cc3ccc4c(c3)OCO4)CC2)nc1 [Piribedil],102 ± 2.8%,
CCCC1C(=O)N2C(N(C)C)=Nc3ccc(C)cc3N2C1=O (centres undefined) [Azapropazone],79.8%,
O=C(O)CNC(=O)C(CS)Cc1ccccc1 (racemic) [DL-Thiorphan],108%,
Clc1ccc(C(Cn2ccnc2)OCc2ccsc2Cl)c(Cl)c1 (centres undefined) [Tioconazole],94.1 ± 10%,
Clc1ccc(C(Cn2ccnc2)OCc2ccsc2Cl)c(Cl)c1 (centres undefined),99.5%,
CCOC(=O)O[C@]1(C(=O)OCCl)CC[C@H]2[C@@H]3CCC4=CC(=O)C=C[C@]4(C)[C@H]3[C@@H](O)C[C@@]21C,104%,
Fc1ccc(CN(C2=NCCN2)c2c(Cl)cccc2Cl)cc1 [IMID-4F hydrochloride],105%,
CCOC(=O)COc1ccc2c(=O)cc(-c3ccccc3)oc2c1,112%,
Oc1cc2c(c(Cl)c1O)CCNCC2c1ccccc1 (racemic) [(±)-6-Chloro-PB hydrobromide],115%,
Cc1nn(-c2ccccc2)c(C)c1C=NN1CCN(Cc2ccccc2)CC1,99.9%,
Cc1ccc(NC(=O)c2ccc(CN3CCN(C)CC3)cc2)cc1Nc1nccc(-c2cccnc2)n1 [Imatinib],109 ± 13%,
Cc1ccc(NC(=O)c2ccc(CN3CCN(C)CC3)cc2)cc1Nc1nccc(-c2cccnc2)n1,104%,
